In this experiment the test system is P388 leukemia ip, CD2F1 mice, survival T/C. The experiment is described as follows: NCI In Vivo Anticancer Drug Screen. Data for tumor model P388 Leukemia (intraperitoneal) in CD2F1 (CDF1) mice. To be noted: T/C endpoint: median survival time, higher T/C = longer survival.
[1] abbreviates: dose: 200.0 mg/kg/injection, schedule: Q01DX009 (ip), vehicle: saline with Tween-80.
Where [2] appears, read: dose: 200.0 mg/kg/injection, schedule: Q01DX009 (ip), vehicle: Klucel (hydroxypropylcellulose) (HPC).
Setting [3] is: dose: 240.0 mg/kg/injection, schedule: Q01DX005 (ip), vehicle: Klucel (hydroxypropylcellulose) (HPC).
Setting [4] is: dose: 25.0 mg/kg/injection, schedule: Q01DX009 (ip), vehicle: Klucel (hydroxypropylcellulose) (HPC).
[5] abbreviates: dose: 50.0 mg/kg/injection, schedule: Q01DX009 (ip), vehicle: Klucel (hydroxypropylcellulose) (HPC).
Where [6] appears, read: dose: 100.0 mg/kg/injection, schedule: Q01DX009 (ip), vehicle: Klucel (hydroxypropylcellulose) (HPC).
Setting [7] is: dose: 100.0 mg/kg/injection, schedule: Q04DX002 (ip), vehicle: saline with Tween-80.

The list does not hold the whole screen: it gathers tests that were run many times, whatever their T/C, doses with no T/C, and many T/C values between a quarter and a half above the control. Other doses and runs of a compound stand elsewhere. T/C: endpoint of the treated group in % of that of the vehicle group. Some entries give survivors of the animals treated and no T/C: the source holds a T/C of zero for them, seemingly a mark for toxic or unscored doses. Some doses without a T/C left all or most animals alive at the check, yet need not have been tolerated: survival well below the control is almost never listed, so the zero probably covers shortened survival too. Survivors were counted at the toxicity check, usually on the fifth day, unless a day is given; later deaths do not show. Schedules are NCI's codes, read here as Q, the interval in days (D) or hours (H), X, the number of doses. Some entries hold several experiments; the results are listed from low to high. Where survival is the endpoint, this PubChem deposit counts one and a half times the control or more as active, and values a quarter to a half above the control carry no call in these data; other NCI protocols may use other cut-offs.

For `ClCSc1ccccc1C1=NCCCN1`, the survivor count is on record as 0 of 6 (dose: 6.25 mg/kg/injection, schedule: Q01DX005 (ip), vehicle: saline); 0 of 6 (dose: 12.5 mg/kg/injection, schedule: Q01DX005 (ip), vehicle: saline); 0 of 6 (dose: 25.0 mg/kg/injection, schedule: Q01DX005 (ip), vehicle: saline); 0 of 6 (dose: 50.0 mg/kg/injection, schedule: Q01DX005 (ip), vehicle: saline); 0 of 6 (dose: 100.0 mg/kg/injection, schedule: Q01DX005 (ip), vehicle: saline); 0 of 6 (dose: 200.0 mg/kg/injection, schedule: Q01DX005 (ip), vehicle: saline).
As for `O=C(CC(=O)C(F)(F)F)c1ccc(-c2ccccc2)cc1`, under setting [1], the survivor count is given as 0 of 6.
In the case of `Cc1ccc2c(c1)sc1nncn12`, the survivor count under setting [2] is 0 of 6.
Turning to `CNC(C)C1(O)Cc2c(O)c3c(c(O)c2C(OC2CC(N)C(O)C(C)O2)C1)C(=O)c1c(OC)cccc1C3=O` (configuration not stated), the T/C is 127 % of control (dose: 0.5 mg/kg/injection, schedule: Q01DX009 (ip), vehicle: water); 133 % of control (dose: 1.0 mg/kg/injection, schedule: Q01DX009 (ip), vehicle: water); 135 and 146 % of control (dose: 2.0 mg/kg/injection, schedule: Q01DX009 (ip), vehicle: water); 144 % of control (dose: 4.0 mg/kg/injection, schedule: Q01DX009 (ip), vehicle: water). Moreover, for the setting “dose: 32.0 mg/kg/injection, schedule: Q01DX009 (ip), vehicle: water”, the survivor count is 4 of 6.
As for `CCN(CC)CCOC(C)(C#CC(C)(O)CC)CC` (configuration not stated), the survivor count (dose: 200.0 mg/kg/injection, schedule: Q01DX005 (ip), vehicle: saline with Tween-80) was 0 of 6.
With `NS(=O)(=O)c1ncnc2nc[nH]c12`, the T/C is 131 % of control (dose: 15.0 mg/kg/injection, schedule: Q01DX009 (ip), vehicle: saline with Tween-80) and 129 % of control (dose: 22.5 mg/kg/injection, schedule: Q01DX009 (ip), vehicle: saline with Tween-80). In addition, the survivor count (dose: 120.0 mg/kg/injection, schedule: Q01DX009 (ip), vehicle: saline with Tween-80) is listed as 2 of 6.
On to `CC(C)SC(=S)Nc1cc(Cl)c(Cl)cc1Cl`, for which the survivor count under setting [1] is 1 of 6.
Turning to `CN(C)c1ccc(C(=C2C=CC(=[N+](C)C)C=C2)c2ccc(N(C)C)cc2)cc1`, the T/C runs as follows: (dose: 0.78 mg/kg/injection, schedule: Q01DX009 (ip), vehicle: saline) 128 % of control; (dose: 1.56 mg/kg/injection, schedule: Q01DX009 (ip), vehicle: saline) 126 % of control; (dose: 3.12 mg/kg/injection, schedule: Q01DX009 (ip), vehicle: saline) 134 % of control. In addition, under “dose: 6.25 mg/kg/injection, schedule: Q01DX009 (ip), vehicle: saline”, the survivor count is 3 of 6.
On to `COc1cc(CC2c3cc(OC)c(OC)cc3CCN2C)c(NC(=O)c2ccc(C(=O)Nc3cc(OC)c(OC)cc3CC3c4cc(OC)c(OC)cc4CCN3C)cc2)cc1OC` (configuration not stated), for which the survivor count (dose: 100.0 mg/kg/injection, schedule: Q01DX009 (ip), vehicle: other) is 6 of 6.
Consider `CN(C)C(=O)c1nc(CNC(=O)CN)n(-c2ccc(Cl)cc2C(=O)c2ccccc2)n1`, for which the survivor count under setting [3] is 3 of 6.
Consider `CCOC(=O)/N=[N+](\[O-])c1ccccc1`, for which the T/C is, setting by setting: (dose: 3.12 mg/kg/injection, schedule: Q01DX009 (ip), vehicle: saline with Tween-80) 132 % of control; (dose: 6.25 mg/kg/injection, schedule: Q01DX009 (ip), vehicle: saline with Tween-80) 126 % of control. The survivor count is reported as 1 of 6 (dose: 25.0 mg/kg/injection, schedule: Q04DX003 (ip), vehicle: saline with Tween-80); 1 of 6 (dose: 50.0 mg/kg/injection, schedule: Q04DX003 (ip), vehicle: saline with Tween-80); 2 of 6 (dose: 100.0 mg/kg/injection, schedule: Q04DX003 (ip), vehicle: saline with Tween-80); 0 of 6 (dose: 200.0 mg/kg/injection, schedule: Q04DX003 (ip), vehicle: saline with Tween-80); 0 of 6 (dose: 400.0 mg/kg/injection, schedule: Q04DX003 (ip), vehicle: saline with Tween-80).
Consider `C1C2OC2C2C1C1CC2C2OC12` (configuration not stated), for which the survivor count is reported as 6 of 6 under setting [4], 5 of 6 under setting [5], 0 of 6 under setting [6] and 0 of 6 under setting [2].
On to `CCOc1ccccc1/C=N\NC(=O)C(=O)N/N=C\c1ccccc1OCC`, for which the survivor count is on record as 6 of 6 (dose: 12.5 mg/kg/injection, schedule: Q01DX009 (ip), vehicle: Klucel (hydroxypropylcellulose) (HPC)); 6 of 6 under setting [4]; 6 of 6 under setting [5]; 6 of 6 under setting [6].
On to `Nc1ccccc1Nc1ccncc1`, for which the survivor count (dose: 200.0 mg/kg/injection, schedule: Q01DX009 (ip), vehicle: suspension in saline) was 2 of 6.
For `CNC(=O)OCc1c(COC(=O)NC)c(-c2ccc(F)cc2)n(C)c1C`, the T/C runs as follows: (dose: 6.25 mg/kg/injection, schedule: Q01DX009 (ip), vehicle: distilled water + Tween-80) 134 and 144 % of control; (dose: 12.5 mg/kg/injection, schedule: Q01DX009 (ip), vehicle: distilled water + Tween-80) 130 and 142 % of control; (dose: 50.0 mg/kg/injection, schedule: Q01DX009 (ip), vehicle: distilled water + Tween-80) 132 % of control. The survivor count (dose: 100.0 mg/kg/injection, schedule: Q01DX009 (ip), vehicle: distilled water + Tween-80) is 0 of 6 and 3 of 6.
`CCN1CCC(O)(/C=C/c2ccccc2)C(C(=O)/C=C/c2ccccc2)C1` (configuration not stated): under setting [3], the survivor count is given as 3 of 6.
As for `O=C1c2cc([N+](=O)[O-])cc3cc([N+](=O)[O-])cc(c23)C(=O)N1CCNCCNCCNCCN1C(=O)c2cc([N+](=O)[O-])cc3cc([N+](=O)[O-])cc(c23)C1=O`, the T/C (dose: 25.0 mg/kg/injection, schedule: Q04DX002 (ip), vehicle: saline with Tween-80) was 128 % of control; the T/C (dose: 50.0 mg/kg/injection, schedule: Q04DX002 (ip), vehicle: saline with Tween-80) is 137 % of control; the T/C under setting [7] was 125 % of control. In addition, the survivor count runs as follows: under setting [7], 4 of 6 and 6 of 6; (dose: 200.0 mg/kg/injection, schedule: Q04DX002 (ip), vehicle: saline with Tween-80) 1 of 6; (dose: 400.0 mg/kg/injection, schedule: Q04DX002 (ip), vehicle: saline with Tween-80) 0 of 6.
Take `c1cc[c]([Sn]([NH]c2ncnc3[nH]cnc23)([NH]c2ncnc3[nH]cnc23)[c]2ccccc2)cc1`: the T/C (dose: 25.0 mg/kg/injection, schedule: Q01DX009 (ip), vehicle: saline) was 145 % of control; the T/C under setting [5] was 129 % of control; the T/C (dose: 50.0 mg/kg/injection, schedule: Q01DX009 (ip), vehicle: saline) was 141 % of control; the T/C (dose: 100.0 mg/kg/injection, schedule: Q01DX009 (ip), vehicle: saline) is 141 % of control. Besides, the survivor count under setting [2] is on record as 0 of 6.
As for `O=C(NC1CCC(CC2CCC(NC(=O)C34CC5CC(CC(C5)C3)C4)CC2)CC1)C12CC3CC(CC(C3)C1)C2` (configuration not stated), the survivor count reads like this: (dose: 3.12 mg/kg/injection, schedule: Q01DX005 (ip), vehicle: saline with Tween-80) 6 of 6; (dose: 6.25 mg/kg/injection, schedule: Q01DX005 (ip), vehicle: saline with Tween-80) 6 of 6; (dose: 12.5 mg/kg/injection, schedule: Q01DX005 (ip), vehicle: saline with Tween-80) 6 of 6; (dose: 25.0 mg/kg/injection, schedule: Q01DX005 (ip), vehicle: saline with Tween-80) 6 of 6; (dose: 50.0 mg/kg/injection, schedule: Q01DX005 (ip), vehicle: saline with Tween-80) 6 of 6; (dose: 100.0 mg/kg/injection, schedule: Q01DX005 (ip), vehicle: saline with Tween-80) 6 of 6.

The record behind these values is PubChem BioAssay AID330 (DTP/NCI, 2004).
